Results from ChEMBL document CHEMBL5550189, “Discovery of GS-7682, a Novel 4'-Cyano-Modified C-Nucleoside Prodrug with Broad Activity against Pneumo- and Picornaviruses and Efficacy in RSV-Infected African Green Monkeys” (J Med Chem, 2024).

Tested on: SARS-CoV-2
Assay: Anti-viral activity against SARS-CoV-2 infected in human A549 cells expressing hACE2 by firefly reporter assay
Format: functional, organism-based
Details: Severe acute respiratory syndrome coronavirus 2, A549

Question: With `CCC(CC)COC(=O)[C@H](C)N[P@](=O)(OC[C@H]1O[C@@](C#N)(c2ccc3c(N)ncnn23)[C@H](O)[C@@H]1O)Oc1ccccc1` [REMDESIVIR] as the compound, how does the EC50 read?
Answer: 80 nM
